In assay [1] the target is T1, LIS1 (PAFAH1b1, platelet-activating factor acetylhydrolase isoform 1b subunit 1), endogenous (mouse (endogenous in osteoclasts from C57/BL6 bone marrow macrophages)) (UniProt P63005).
T1 sequence: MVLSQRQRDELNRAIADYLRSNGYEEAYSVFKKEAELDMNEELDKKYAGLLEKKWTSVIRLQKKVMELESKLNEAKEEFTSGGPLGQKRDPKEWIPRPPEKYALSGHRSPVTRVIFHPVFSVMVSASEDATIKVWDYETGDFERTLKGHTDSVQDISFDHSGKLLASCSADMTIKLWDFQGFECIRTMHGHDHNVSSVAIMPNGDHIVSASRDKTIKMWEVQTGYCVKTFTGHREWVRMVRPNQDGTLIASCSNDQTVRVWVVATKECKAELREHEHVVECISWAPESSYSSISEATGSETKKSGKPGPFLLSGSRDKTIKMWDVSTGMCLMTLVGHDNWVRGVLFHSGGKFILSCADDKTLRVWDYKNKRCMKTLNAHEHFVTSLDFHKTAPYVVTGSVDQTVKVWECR
Briefly: co-IP; lysate of mature osteoclasts transduced with truncated HA-Plekhm1 fragments, H-buffer; endogenous LIS1 precipitated with a rabbit polyclonal antibody, Plekhm1 detected with monoclonal anti-HA.

For assay [2], the target named is GST fusion protein of the PH1 domain of mouse Plekhm1 (mouse). Briefly: pull-down; 2 µg GST fusion protein of single Plekhm1 domains on glutathione beads, 2 mg mature osteoclast lysate, 2 hours at 4°C, IP buffer (20 mM Hepes pH 7.4, 120 mM NaCl, 5% glycerol, 0.5 mM EDTA, 0.2% NP-40); immunoblot with anti-LIS1; only the target purified. (In western blotting, separated proteins are transferred to a membrane and probed.)

The target of assay [3] is HA-tagged N-terminal half of mouse Plekhm1 (mouse). Kind of assay: co-IP; lysate of mature osteoclasts transduced with HA-Plekhm1 constructs, H-buffer (20 mM HEPES pH 7.4, 1% Triton X-100, 1 mM EDTA, 150 mM NaCl, 1 mM DTT); IP with anti-HA, blots with anti-LIS1, anti-DIC and anti-HA.
Assay [4] deals with HA-tagged C-terminal half of mouse Plekhm1 (mouse). The assay is described as above.

No constants are given. Whether binding was seen depends on the method and setting. Binding seen in cells or lysates may run through a third protein. Binding calls can cover weak binding; strength is not graded here.

“HA-tagged C-terminal half of mouse Plekhm1 (domain or fragment)”: the binding entry in assay [1] is reported as “binds”. Same read-out and setting: the same measure for “HA-tagged C-terminal half of mouse Plekhm1 depleted in PH1 domain (domain or fragment)”: “no binding”. As to “HA-tagged N-terminal half of mouse Plekhm1 without RUN domain (domain or fragment)”, the binding entry in assay [1] is recorded as “no binding”.

B1: LIS1 (PAFAH1b1, platelet-activating factor acetylhydrolase isoform 1b subunit 1), endogenous (protein, UniProt P63005 1-410)
chain: T1 sequence
Consider B1, for which the binding entry in assay [2], in assay [3] and in assay [4] was “binds” in each case.
